# Assay results: the supplement of paper PMC6411743
# Protein sequences, listed by entry. Tags and fused reporters are not part of them. Lines headed by an entry give the natural chain unless they say otherwise; changes in a name come on top.
# UniProt P30622: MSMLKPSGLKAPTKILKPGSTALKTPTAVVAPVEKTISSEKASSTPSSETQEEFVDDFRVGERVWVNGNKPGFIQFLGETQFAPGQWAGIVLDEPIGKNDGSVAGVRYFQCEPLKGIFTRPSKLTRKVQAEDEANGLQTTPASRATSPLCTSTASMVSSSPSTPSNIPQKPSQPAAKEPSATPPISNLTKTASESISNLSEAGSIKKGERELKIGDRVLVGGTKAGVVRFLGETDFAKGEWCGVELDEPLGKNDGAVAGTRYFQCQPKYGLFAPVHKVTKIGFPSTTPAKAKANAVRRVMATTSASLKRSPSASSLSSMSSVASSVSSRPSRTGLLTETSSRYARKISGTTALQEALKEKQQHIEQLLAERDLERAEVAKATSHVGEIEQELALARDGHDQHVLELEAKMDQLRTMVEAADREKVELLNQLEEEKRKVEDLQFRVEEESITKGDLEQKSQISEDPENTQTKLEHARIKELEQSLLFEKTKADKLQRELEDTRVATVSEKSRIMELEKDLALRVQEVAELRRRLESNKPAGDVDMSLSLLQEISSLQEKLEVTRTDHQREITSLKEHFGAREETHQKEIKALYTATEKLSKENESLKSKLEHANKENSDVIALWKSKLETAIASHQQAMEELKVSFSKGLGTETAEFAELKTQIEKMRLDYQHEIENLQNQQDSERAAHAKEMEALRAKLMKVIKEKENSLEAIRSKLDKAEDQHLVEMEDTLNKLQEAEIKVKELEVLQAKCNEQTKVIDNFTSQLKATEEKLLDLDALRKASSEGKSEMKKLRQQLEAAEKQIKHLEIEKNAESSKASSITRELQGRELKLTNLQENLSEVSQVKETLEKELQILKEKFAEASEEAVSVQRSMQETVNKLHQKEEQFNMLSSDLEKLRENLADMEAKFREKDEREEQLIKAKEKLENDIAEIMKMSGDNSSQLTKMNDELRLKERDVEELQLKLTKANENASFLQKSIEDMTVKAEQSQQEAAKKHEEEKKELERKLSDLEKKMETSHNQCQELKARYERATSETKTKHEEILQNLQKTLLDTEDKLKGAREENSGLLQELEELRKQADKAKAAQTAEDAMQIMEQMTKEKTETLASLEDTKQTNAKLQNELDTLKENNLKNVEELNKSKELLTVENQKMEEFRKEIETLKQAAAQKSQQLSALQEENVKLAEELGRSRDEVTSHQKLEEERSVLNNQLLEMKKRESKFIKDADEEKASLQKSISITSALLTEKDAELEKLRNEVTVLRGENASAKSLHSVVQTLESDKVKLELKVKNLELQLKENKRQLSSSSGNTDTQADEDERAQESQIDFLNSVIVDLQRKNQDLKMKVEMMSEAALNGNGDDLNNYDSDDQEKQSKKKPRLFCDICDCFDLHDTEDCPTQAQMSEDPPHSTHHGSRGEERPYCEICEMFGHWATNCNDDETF
# UniProt P46108: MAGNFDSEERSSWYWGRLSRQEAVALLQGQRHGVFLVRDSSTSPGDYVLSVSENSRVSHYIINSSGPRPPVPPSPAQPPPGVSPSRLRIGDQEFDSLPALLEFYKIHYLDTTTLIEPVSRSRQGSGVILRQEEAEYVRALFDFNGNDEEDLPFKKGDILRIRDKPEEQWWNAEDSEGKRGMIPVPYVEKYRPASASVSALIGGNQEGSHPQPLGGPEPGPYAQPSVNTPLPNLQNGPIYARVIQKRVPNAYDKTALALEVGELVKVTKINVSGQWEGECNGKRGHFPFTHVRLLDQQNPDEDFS
# UniProt P38646: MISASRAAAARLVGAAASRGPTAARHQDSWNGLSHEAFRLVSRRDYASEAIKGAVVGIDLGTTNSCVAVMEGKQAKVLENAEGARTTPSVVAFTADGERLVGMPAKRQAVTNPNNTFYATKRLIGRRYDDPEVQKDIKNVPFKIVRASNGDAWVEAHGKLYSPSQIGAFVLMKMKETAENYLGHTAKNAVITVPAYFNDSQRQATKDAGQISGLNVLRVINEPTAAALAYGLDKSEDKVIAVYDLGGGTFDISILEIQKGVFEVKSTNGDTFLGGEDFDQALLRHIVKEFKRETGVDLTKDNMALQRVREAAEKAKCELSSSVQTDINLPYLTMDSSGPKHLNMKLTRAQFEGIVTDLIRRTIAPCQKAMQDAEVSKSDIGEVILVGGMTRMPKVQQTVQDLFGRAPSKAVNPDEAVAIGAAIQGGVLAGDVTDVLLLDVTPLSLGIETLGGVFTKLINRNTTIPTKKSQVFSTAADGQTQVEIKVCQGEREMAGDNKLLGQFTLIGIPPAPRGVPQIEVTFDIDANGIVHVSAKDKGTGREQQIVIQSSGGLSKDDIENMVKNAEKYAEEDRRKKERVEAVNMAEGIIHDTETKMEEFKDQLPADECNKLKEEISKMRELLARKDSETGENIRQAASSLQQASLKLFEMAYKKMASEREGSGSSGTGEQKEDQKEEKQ
# UniProt P49189: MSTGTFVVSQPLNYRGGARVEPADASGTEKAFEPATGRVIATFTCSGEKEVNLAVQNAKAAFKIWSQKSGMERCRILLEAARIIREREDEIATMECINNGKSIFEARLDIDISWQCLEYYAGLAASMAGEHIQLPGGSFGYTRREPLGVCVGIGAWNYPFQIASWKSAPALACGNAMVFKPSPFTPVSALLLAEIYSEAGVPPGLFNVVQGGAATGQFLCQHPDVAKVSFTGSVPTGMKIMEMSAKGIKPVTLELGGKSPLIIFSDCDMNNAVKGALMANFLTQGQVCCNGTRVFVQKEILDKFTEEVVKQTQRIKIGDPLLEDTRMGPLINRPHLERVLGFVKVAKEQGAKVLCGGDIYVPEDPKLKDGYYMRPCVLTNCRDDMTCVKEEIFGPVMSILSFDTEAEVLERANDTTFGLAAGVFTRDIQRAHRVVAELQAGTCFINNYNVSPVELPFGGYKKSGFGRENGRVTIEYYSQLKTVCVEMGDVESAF
# ± gives the standard deviation of the averaged measurements. The list shows a part of the results.
# Compound: Nc1nc2c(ncn2[C@@H]2O[C@H](COP(=O)(O)OP(=O)(O)OP(=O)(O)O)[C@@H](O)[C@H]2O)c(=O)[nH]1 [guanosine triphosphate]
# Assay: NP40-soluble protein abundance relative to vehicle (solubility fold change) (ratio); higher = more soluble protein in presence of GTP
# Experimental: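 Solubility proteome profiling in Jurkat crude lysate. Lysate was treated with Mg-GTP (0.1-10 mM) for 10 min at room temperature and 3 min at 37 °C, then solubilised with 0.8% NP40 and benzonase, followed by ultracentrifugation. Proteins were quantified by TMT10 LC-MS/MS; the value is the NP40-soluble abundance relative to the NP40-processed vehicle, from 3 independent experiments.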
Target,NP40-soluble protein abundance (concentration: 0.1mM),NP40-soluble protein abundance (concentration: 0.5mM),NP40-soluble protein abundance (concentration: 1mM),NP40-soluble protein abundance (concentration: 2mM),NP40-soluble protein abundance (concentration: 4mM),NP40-soluble protein abundance (concentration: 6mM),NP40-soluble protein abundance (concentration: 8mM),NP40-soluble protein abundance (concentration: 10mM)
UniProt P30622 and related entries,0.996 ± 0.068,1 ± 0.086,1.01 ± 0.08,0.97 ± 0.11,0.953 ± 0.076,0.954 ± 0.069,1 ± 0.088,1.01 ± 0.11
CRK (UniProt P46108),0.966 ± 0.031,1 ± 0.011,1 ± 0.083,0.925 ± 0.059,0.998 ± 0.072,0.9 ± 0.059,0.951 ± 0.038,0.983 ± 0.077
RPL5 (UniProt P46777),0.986 ± 0.019,1.01 ± 0.03,1 ± 0.046,0.941 ± 0.077,0.895 ± 0.094,0.87 ± 0.1,0.837 ± 0.08,0.888 ± 0.094
HSPA9 (UniProt P38646),0.919 ± 0.08,0.929 ± 0.067,0.968 ± 0.073,0.91 ± 0.09,0.921 ± 0.089,0.922 ± 0.076,0.938 ± 0.067,0.937 ± 0.096
ALDH9A1 (UniProt P49189),0.992 ± 0.02,1.02 ± 0.028,0.953 ± 0.016,0.955 ± 0.032,0.944 ± 0.036,0.951 ± 0.037,0.9227 ± 0.008,0.918 ± 0.034
